For part of these data: The comparison behind a weaker result is the experiment's own reference, which may not be listed here. For part of these data: Where cells or extracts were used, other partners may take part. For part of these data: Construct, isoform or probe ends are uncertain for at least one entry. For part of these data: Negatives hold for the conditions tested.

Chains of the proteins cited; added tags and fusions are not shown. Residues count along the entry.
UniProt P51654, 25-554: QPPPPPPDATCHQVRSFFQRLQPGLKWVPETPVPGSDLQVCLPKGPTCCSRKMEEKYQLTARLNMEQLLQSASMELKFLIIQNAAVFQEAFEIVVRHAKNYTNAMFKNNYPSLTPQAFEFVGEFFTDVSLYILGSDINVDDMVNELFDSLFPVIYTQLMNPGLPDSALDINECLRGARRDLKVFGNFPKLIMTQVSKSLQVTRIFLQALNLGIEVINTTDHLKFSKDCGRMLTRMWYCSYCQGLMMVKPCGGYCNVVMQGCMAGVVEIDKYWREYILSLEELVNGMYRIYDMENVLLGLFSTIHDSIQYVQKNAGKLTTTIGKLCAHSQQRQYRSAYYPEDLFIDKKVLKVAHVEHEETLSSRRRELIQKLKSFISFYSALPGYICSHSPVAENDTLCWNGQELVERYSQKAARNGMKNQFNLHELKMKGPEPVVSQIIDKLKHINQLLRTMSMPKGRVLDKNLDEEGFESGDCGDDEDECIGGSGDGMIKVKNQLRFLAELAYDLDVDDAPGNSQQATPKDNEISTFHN

The target of data set [1] is Glypican-3 (GPC3) (UniProt P51654). The data set is described as follows: filter binding. As to conditions: n = BzdU, S = gemcitabine [BzdU (T) at 7,11,15,16,20,21,23,25,29,30,34,37, purified recombinant protein, single-stranded DNA, letters built from the parent sequence and the stated change, variant of 2428-12-10 (12-10).
Data set [2] relates to Glypican-3 (GPC3) on hepatoma cells (HepG2, Hep3B, Huh-7). In words: flow cytometry. The settings on record: n = BzdU, protein on the cell surface, single-stranded DNA.
Data set [3] has the same test system. In words: activity in cells. The settings on record: n = BzdU, single-stranded DNA, variant of 12-12, dose not given here.
In data set [4] the target is Glypican-3 (GPC3) (UniProt P51654). The data set is described as follows: MST. The settings on record: n = BzdU, S = gemcitabine, 2'-F, 2'-OMe, 2'-OMe: 1,3,28,34, 3' idT left out], purified recombinant protein, label: 5' Cy5, single-stranded DNA, letters built from the parent sequence and the stated change, variant of Combi 4.
Data set [5] has as its system A431 cells (low GPC3 expression). In words: activity in cells. As to conditions: n = BzdU, 2'-F, no internalization in A431, protein on the cell surface, single-stranded DNA, variant of 12-12, dose not given here.

As for “CCGAAGTGAATGCGTTGAATTATGTCCCTTCAGTCATCAC [12-10 G(2)5']”, in data set [1] (gemcitabine (C) at 1,2], gemcitabine at 5' end affects binding), the binding result is listed as “binds more weakly”.
Turning to “GGGAAGTGAATGCGTTGAATTATGTCCCTTCAGTCATCAC [12-10 G(2)P]”, in data set [1] (gemcitabine (C) at 35,38], gemcitabine at pair affects binding), the binding result is listed as “binds more weakly”.
As for “GTGAATGCCTTGAATTATCTCCCTTCAGTCATCAC [12-12 G(7)]”, in data set [2] (S = gemcitabine, 3' idT [BzdU (T): 2,6,10,11,15,16,18,20,24,25,29,32, gemcitabine (C): 8,9,19,21,22,23,35 (9 and 19 replace parent G), 3' idT left out], cell binding decreases with gemcitabine number, label: 5' Cy5, letters built from the parent sequence and the stated change, variant of 12-12), the binding result is reported as “binds more weakly”.
“GTGAATGCGTTGAATTATGTCCCTTCAGTCATCAC [12-12 G(3)]”: the binding result in data set [2] (S = gemcitabine, 3' idT [BzdU (T) at 2,6,10,11,15,16,18,20,24,25,29,32, gemcitabine (C) at 21,22,23, 3' idT left out (after 35)], best cell binding among gemcitabine-bound 12-12, label: 5' Cy5, letters built from the parent sequence and the stated change, variant of 12-12) is on record as “binds”. Moreover, in data set [3] (S = gemcitabine, 3' idT [BzdU (T) at 2,6,10,11,15,16,18,20,24,25,29,32, gemcitabine (C) at 21,22,23, 3' idT left out (after 35)], HepG2 killing by gemcitabine aptamer, none on A431, protein on the cell surface, letters built from the parent sequence and the stated change), the “functional effect of the aptamer” value is “active”.
With “GTGAATGCGTTGAATTATGTCCCTTCAGTCATCAC [12-12 G(5)]”, in data set [2] (S = gemcitabine, 3' idT [BzdU (T): 2,6,10,11,15,16,18,20,24,25,29,32, gemcitabine (C): 8,21,22,23,35, 3' idT left out], cell binding decreases with gemcitabine number, label: 5' Cy5, letters built from the parent sequence and the stated change, variant of 12-12), the binding result is given as “binds more weakly”.
With “GTGAATGCGTTGAATTATGTCCCTTCAGTCATCAC [12-12]”, the binding result in data set [2] (3' idT, Huh-7 cells, 25 nM aptamer, KRPH buffer, 4 C, best of 12-10 truncations, label: 5' Cy5 (cell assays), variant of 2428-12-10 (12-10)) is “binds”.
On to “GTGAATGCGTTGAATTATGTCCCTTCAGTCATCAC [Combi 4 G(3)]”, for which the binding result is “binds” in data set [4] (Y = Nap-dU as printed GMenGMeAFAFnGCGnnGFAFAFnnAFnGYSSSnnCAGMnCAnCFAMCF, 3' idT [BzdU (T): 2,6,10,11,15,16,18,24,25,29,32, Nap-dU (T): 20, gemcitabine (C): 21,22,23, 2'-F: 4,5,12,13,14,17,33,35, Kd similar to 12-12, SB18T0.05); “binds” in data set [2] (S = gemcitabine, 2'-F, 2'-OMe, Y = Nap-dU as printed GMenGMeAFAFnGCGnnGFAFAFnnAFnGYSSSnnCAGMnCAnCFAMCF, 3' idT [BzdU (T): 2,6,10,11,15,16,18,24,25,29,32, Nap-dU (T): 20, gemcitabine (C): 21,22,23, 2'-OMe: 1,3,28,34, 2'-F: 4,5,12,13,14,17,33,35, 3' idT left out], better cell binding than G(5), label: 5' Cy5, letters built from the parent sequence and the stated change, variant of Combi 4).
Regarding “GTGAATGCGTTGAATTATGTCCCTTCAGTCATCAC [Combi 4 G(5)]”, the binding result in data set [4] (Y = Nap-dU as printed GMenGMeAFAFnGCGnnGFAFAFnnAFnGYSSSnnCAGMenCAnSAMeS, 3' idT [BzdU (n=T): 2,6,10,11,15,16,18,24,25,29,32, Nap-dU (Y=T): 20, gemcitabine (S=C): 21,22,23,33,35, 2'-F: 4,5,12,13,14,17, low binding with five gemcitabines) is listed as “binds more weakly”; in data set [2] (S = gemcitabine, 2'-F, 2'-OMe, Y = Nap-dU as printed GMenGMeAFAFnGCGnnGFAFAFnnAFnGYSSSnnCAGMenCAnSAMeS, 3' idT [BzdU (n=T): 2,6,10,11,15,16,18,24,25,29,32, Nap-dU (Y=T): 20, gemcitabine (S=C): 21,22,23,33,35, 2'-OMe: 1,3,28,34, 2'-F: 4,5,12,13,14,17, 3' idT left out], label: 5' Cy5, letters built from the parent sequence and the stated change, variant of Combi 4) it was “binds more weakly”.
For “GTGAATGCGTTGAATTATGTCCCTTCAGTCATCAC [Combi 4]”, the “functional effect of the aptamer” value in data set [3] (2'-F, 2'-OMe, Y = Nap-dU as printed GMenGMeAFAFnGCGnnGFAFAFnnAFnGYCFCFCFnnCAGMenCAnCAMCF, 3' idT [BzdU (T): 2,6,10,11,15,16,18,24,25,29,32, Nap-dU (T): 20, 2'-OMe: 1,3,28,34, 2'-F: 4,5,12,13,14,17,21,22,23,35, 3' idT left out], excellent Hep3B internalization, protein on the cell surface, letters built from the parent sequence and the stated change) is “active”.
Regarding “GTGAATGCGTTGAATTATGTCCCTTCAGTCATCAC [Combi 6]”, the “functional effect of the aptamer” value in data set [5] (2'-OMe, Y = Nap-dU as printed GMenGMeAFAFnGCGnnGFAFAMennAMenGYCFCFCFnnCAGMenCAnCFAMeCF, 3' idT [BzdU (T): 2,6,10,11,15,16,18,24,25,29,32, Nap-dU (T): 20, 2'-OMe: 1,3,14,17,28,34, 2'-F: 4,5,12,13,21,22,23,33,35, 3' idT left out], letters built from the parent sequence and the stated change) is recorded as “not active”; in data set [3] (2'-F, 2'-OMe, Y = Nap-dU as printed GMenGMeAFAFnGCGnnGFAFAMennAMenGYCFCFCFnnCAGMenCAnCFAMeCF, 3' idT [BzdU (T): 2,6,10,11,15,16,18,24,25,29,32, Nap-dU (T): 20, 2'-OMe: 1,3,14,17,28,34, 2'-F: 4,5,12,13,21,22,23,33,35, 3' idT left out], internalization in HepG2 and Hep3B, protein on the cell surface, letters built from the parent sequence and the stated change) it was “active”.
Regarding “GTGAATGCGTTGAATTATGTCCCTTCAGTCATCAC [Combi 7]”, the “functional effect of the aptamer” value is on record as “not active” in data set [5] (2'-OMe as printed GMenGMeAFAmnGCGnnGFAFAMennAMenGnCCFCFnnCAGMenCAnCAMeCF, 3' idT); “active” in data set [3] (2'-F, 2'-OMe as printed GMenGMeAFAmnGCGnnGFAFAMennAMenGnCCFCFnnCAGMenCAnCAMeCF, 3' idT, internalization in HepG2 and Hep3B, protein on the cell surface).
Regarding “GTGAATGCGTTGAATTATGTCCCTTCAGTCATCAC [Combi 10]”, the “functional effect of the aptamer” value was “not active” in data set [5] (2'-OMe as printed GMenGMeAFAFnGCGnnGFAFAFnnAFnGnCFCFCFnnCAGMenCAnCFAMCE, 3' idT); “active” in data set [3] (2'-F, 2'-OMe as printed GMenGMeAFAFnGCGnnGFAFAFnnAFnGnCFCFCFnnCAGMenCAnCFAMCE, 3' idT, internalization in HepG2 and Hep3B, protein on the cell …).
For the sequence “GTGAATGCGTTGAATTATTCCCTTCAGTCATCAC [Combi 5]”, in data set [2] (2'-F, 2'-OMe, W = C3 linker, Y = Nap-dU as printed GMenGMeAFAFnGCGnnGFAFAMennAMenWYCFCFCFnnCAGMenCAnCFAMeCF, 3' idT [C3 linker (W) between 18 and 19 left out, BzdU (T): 2,6,10,11,15,16,18,23,24,28,31, Nap-dU (T): 19, 2'-OMe: 1,3,14,17,27,33, 2'-F: 4,5,12,13,20,21,22,32,34, 3' idT left out], HepG2, binding most similar to 12-12, highest Hep3B internalization of combi 1-5, label: 5' Cy5, letters built from the parent sequence and the stated change, variant of 12-12), the binding result is given as “binds”.
“GTGAATGCGTTGAATTATTCCCTTCAGTCATCAC [Combi 8]”: the “functional effect of the aptamer” value in data set [5] (2'-OMe, W = C3 linker as printed GMenGMeAFAFnGCGnnGFAFAMennAMenWnCFCFCFnnCAGMenCAnCFAMeCF, 3' idT [C3 linker (W) between 18 and 19 left out, BzdU (T): 2,6,10,11,15,16,18,19,23,24,28,31, 2'-OMe: 1,3,14,17,27,33, 2'-F: 4,5,12,13,20,21,22,32,34, 3' idT left out], letters built from the parent sequence and the stated change) was “not active”; in data set [3] (2'-F, 2'-OMe, W = C3 linker as printed GMenGMeAFAFnGCGnnGFAFAMennAMenWnCFCFCFnnCAGMenCAnCFAMeCF, 3' idT [C3 linker (W) between 18 and 19 left out, BzdU (T): 2,6,10,11,15,16,18,19,23,24,28,31, 2'-OMe: 1,3,14,17,27,33, 2'-F: 4,5,12,13,20,21,22,32,34, 3' idT left out], highest internalization in HepG2 and Hep3B, protein on the cell surface, letters built from the parent sequence and the stated change), “active”.
